# Measurements published in PubChem BioAssay AID2685 (National Center for Advancing Translational Sciences (NCATS), 2010).
# The list shows a part of the results. The main result of the screen is listed elsewhere. These columns were measured beside it and carry no call. Most of these compounds were active or inconclusive in the main read-out, so they are no random draw. Potencies come from curve fits of mixed quality, noted in brackets.
# Assay: qHTS Assay for Lipid Storage Modulators in Drosophila S3 Cells;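 on cell number change: cells counted by Cell Tracker Red CMTPX staining in the red channel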
# Conditions: BODIPY lipid droplet fluorescence, 18-24 h; for cell number change: measured here: cell count max response, cells fed with added oleic acid
# Summary of the method: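 Drosophila S3 cells loaded with oleic acid (400 uM, as added) and compounds at several concentrations; lipid droplets imaged by 488-nm laser-scanning cytometry, 500–530 nm intensity and object ratio to cell channel. Percent activity normalized to 20 uM Triacsin C.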
# [1] = measured here: lipid fluorescence (Fed channel) AC50, cells fed with added oleic acid
# [2] = measured here: cell number channel AC50, cells fed with added oleic acid
SMILES,cell number change [%],AC50 [1],AC50 [2]
O=C(NNC(=S)NC(=O)c1ccccc1)c1ccc([N+](=O)[O-])cc1,-16.1,"0.13 µM [rising, full curve, poor fit]",–
O=C(COc1ccc(S(=O)(=O)NCc2ccccc2)cc1)NCc1cccnc1,5.65,"5.8 µM [falling, full curve, poor fit]",–
Clc1cc(Br)ccc1OCCCn1ccnc1,–,"4.11 µM [rising, full curve]","0.651 µM [rising, partial curve, poor fit]"
CCC(C)N(C(=O)COc1ccccc1C(=O)NCc1ccccc1)C1CCS(=O)(=O)C1 (stereo not given),20.5,"6.51 µM [rising, single point]",–
Cc1ccc(SCC(=O)NN2C(=O)c3ccccc3C2=O)cc1,21.9,–,–
CC1CC(C)CN(CC(C)(C)NS(=O)(=O)c2ccc(Cl)cc2)C1 (stereo not given),24.9,"18.4 µM [rising, single point]","4.61 µM [rising, full curve, poor fit]"
Cc1cc(NS(=O)(=O)c2ccc(Nc3nc(-c4ccc(C)c(C)c4)cs3)cc2)no1,2.22,"3.66 µM [rising, single point]",–
Cn1c(=O)c2cc(S(=O)(=O)NC(C(=O)NCc3ccccn3)c3ccccc3)ccc2n(C)c1=O (stereo not given),1.96,"4.61 µM [rising, full curve]",–
Cc1ccc(Cn2nc(C)c(NC(=O)c3noc4c3CCCCC4)c2C)cc1,-6.27,"14.6 µM [falling, partial curve, poor fit]",–
O=C(CSCc1c(F)cccc1Cl)NNC(=S)NC1CCCCC1,41.8,"23.1 µM [rising, single point]","29.1 µM [rising, single point]"
CCOc1ccccc1N(CC(=O)NCC1CCCO1)C(=O)CCC(=O)Nc1ccccn1 (stereo not given),18.2,"10.3 µM [rising, partial curve, poor fit]",–
O=C(Nc1ccncc1)C1CCN(S(=O)(=O)c2ccccc2)CC1,-15.5,"6.51 µM [falling, single point]",–
O=C1c2ccccc2C(=O)N1c1ccc(S(=O)(=O)N2CCN(c3ccccc3)CC2)cc1,-22.7,"29.1 µM [falling, single point]","0.206 µM [falling, full curve, poor fit]"
Cc1cccc(OCC(=O)Nc2ccc3c(C)cc(=O)oc3c2)c1,-4.66,"0.231 µM [rising, full curve, poor fit]",–
CCOc1ccc(-c2[nH]ncc2-c2ccc(Cl)cc2)c(O)c1,-69.5,"18.4 µM [falling, single point]","16.4 µM [falling, single point]"
CCOc1ccc(NC(=O)c2cc(S(=O)(=O)N3CCOCC3)cn2C)cc1,15.6,"0.58 µM [rising, partial curve, poor fit]",–
C=CCC(=O)NC1CC(C)(C)Cc2c1cnn2-c1ccccc1C (stereo not given),17.4,–,–
Cc1ccc(CNC(=O)C2CCC(CNc3c(N4CCOCC4)c(=O)c3=O)CC2)cc1 (stereo not given),1.94,–,–
CCCCCc1nnc(NC(=O)c2ccc(=O)n(C)n2)s1,29.6,–,–
O=C(C1CCCN(C2CC(=O)N(c3ccc(F)cc3)C2=O)C1)N1CCCC1 (stereo not given),3.47,"29.1 µM [rising, single point]",–

SMILES,cell number change [%],AC50 [1],AC50 [2]
Cc1c(-c2ccco2)[n+](=O)c2c(n1[O-])CCC2,-13.6,–,–
Cc1ccc(NC(=O)CCNC(=O)c2ccc(Cl)cc2)cc1F,–,–,"0.461 µM [rising, partial curve, poor fit]"
COc1ccc(C(C(=O)NC2CCCC2)N(C(=O)c2ccoc2C)c2ccc(C)cc2)cc1 (stereo not given),-47.8,"3.66 µM [falling, full curve]","7.31 µM [falling, single point]"
Cc1nnc2c3ccccc3c(-c3ccc(O)cc3)nn12,57.2,"7.31 µM [rising, partial curve]","6.51 µM [rising, full curve]"
COc1ccc(N2C(=O)CCC(C(=O)N(C)C3CCCCC3)C2c2ccc(OC)c(OC)c2)cc1 (stereo not given),7.93,–,–
COC(=O)C1=C(C)N(c2ccc(Cl)cc2)/C(=C/c2ccc(O)cc2)C1=O,-2.68,–,–
NCCc1c(-c2ccccc2)n(-c2ccccc2)c2ccccc12,-2.77,–,–
Nc1nnc(SCC(=O)NNC(=O)c2ccc(Cl)cc2)s1,-4.9,"6.51 µM [rising, single point]",–
CCC(C)NC(=O)c1ccc(NC(=O)C2CCCO2)cc1 (stereo not given),–,–,"3.66 µM [falling, single point]"
O=C(c1ccc(Br)o1)N1CCN(c2ccc3nnc(-c4ccc(F)cc4)n3n2)CC1,-7.22,"1.3 µM [rising, full curve]",–
O=C(CNC(=O)c1ccco1)NCC(=O)OCc1ccc(C(=O)Oc2ccc(Cl)cc2)cc1,-0.475,"0.58 µM [rising, single point]",–
CCC(=O)Nc1ccc(C(=O)NNC(=O)C2CCCCC2)cc1,8.5,"29.1 µM [rising, single point]",–
CCc1ccccc1NC(=O)CSc1nnc(C2CC2)n1CC1CCCO1 (stereo not given),2.25,"11.6 µM [falling, single point]",–
O=C(CN1C(=O)NC2(CCCCCCC2)C1=O)N1CCN(C(=O)c2ccco2)CC1,4.67,–,–
O=C(O)CCc1ccc(-c2cccs2)n1NC(=O)c1ccc(Cl)cc1Cl,-0.752,"0.082 µM [rising, full curve, poor fit]",–
CCOC(=O)C(Cc1cc(C(C)=O)ccc1OC(C)C)C(=O)OCC,-7.89,–,–
CCN1C(=O)[C@@H]2[C@@H](c3ccc(-c4ccc(C(C)=O)cc4)c(OC)c3)N3CCCC[C@@]3(C(=O)OC)[C@@H]2C1=O,-4.16,"1.64 µM [falling, partial curve, poor fit]",–
Cc1onc(-c2ccccc2)c1-c1ccnn1S(=O)(=O)c1ccc(Cl)cc1,15,"0.82 µM [rising, partial curve, poor fit]",–
N#CC(c1ccccc1)c1ccc(C(=O)c2ccc(F)cc2)cc1 (stereo not given),-30.5,"0.103 µM [falling, full curve, poor fit]","13 µM [falling, single point]"
COc1cc(CNCc2cccs2)ccc1OCc1cccs1,21.4,"0.164 µM [rising, partial curve, poor fit]",–

SMILES,cell number change [%],AC50 [1],AC50 [2]
CC[C@@H](C)[C@H](NC(=O)Cc1c(C)c2cc3c(C)c(C)oc3c(C)c2oc1=O)C(=O)O,15.4,"13 µM [rising, single point]",–
CC[n+]1c(/C=C2\Sc3ccccc3N2C)ccc2cccc(C)c21,-102,"0.231 µM [falling, full curve, poor fit]","2.31 µM [falling, partial curve]"
COc1cccc(CCN2CCC(CNS(=O)(=O)c3cc(-c4cc(C)no4)ccc3OC)CC2)c1,27.5,"29.1 µM [rising, single point]",–
CCCCN(CCCC)C1=Nc2ccccc2N/C1=C(/C#N)C(=O)OCC,-43.2,"18.4 µM [falling, partial curve, poor fit]","20.6 µM [falling, single point]"
CN(C)CCCNc1ccc(-c2n[nH]c(=O)c3ccccc23)cc1[N+](=O)[O-],0.88,–,–
CNc1ccccc1C(C)(C)c1cc(C)[nH]n1,20.8,"29.1 µM [falling, single point]",–
COc1ccc(/C(N)=N/OC(=O)C2CCC(=O)N2S(=O)(=O)c2ccc(C)cc2)cc1 (stereo not given),36,"0.103 µM [rising, full curve, poor fit]","8.2 µM [rising, partial curve]"
COCCSc1nnc(NC(=O)c2cc(OC)c(OC)cc2[N+](=O)[O-])s1,119,–,–
COc1nc(NCCO)nc(Nc2cc(Cl)ccc2OC)n1,–,"29.1 µM [falling, single point]",–
CCn1c(-c2ccc(C)cc2)n[nH]c1=S,7.98,"6.51 µM [rising, partial curve]",–
COc1cc(NS(=O)(=O)c2ccc(NC(=O)c3ccc(S(=O)(=O)N4CCCC4)cc3)cc2)ncn1,-61.6,"20.6 µM [falling, single point]","29.1 µM [falling, single point]"
Cc1cccc(NS(=O)(=O)c2ccc(C)c(C(=O)NCC(c3ccccc3)N(C)C)c2)c1 (stereo not given),-5.08,"2.91 µM [rising, single point]",–
CC(COc1ccccc1)N(CCCl)Cc1ccccc1 (stereo not given),-2.93,"0.651 µM [falling, single point]",–
CC(C)(C)c1cc(CCC(=O)NNC(=O)c2ccco2)cc(C(C)(C)C)c1O,–,"0.731 µM [rising, full curve]","0.291 µM [rising, full curve]"
O=S(=O)(c1ccccc1)N1CCN(Cc2ccc(Cl)cc2)CC1,-20.5,"29.1 µM [falling, single point]",–
Cc1ccccc1C(=O)N1CCN(c2ccc(NC(=S)NC(=O)c3cccs3)cc2)CC1,-19.1,–,"0.103 µM [falling, partial curve, poor fit]"
O=C(Nc1cc(S(=O)(=O)N2CCOCC2)ccc1N1CCOCC1)c1cnccn1,-12.7,–,"0.82 µM [falling, full curve, poor fit]"
Nc1ccc(N2CCN(C(=O)c3cccs3)CC2)cc1,22.2,"6.51 µM [rising, single point]",–
COc1ccc(NC(=O)c2sc3nc(C)nc(N4CCN(c5ccccn5)CC4)c3c2C)cc1Cl,57.6,"6.51 µM [falling, single point]","16.4 µM [rising, single point]"

# Part of the list above, tab-delimited.
SMILES	cell number change [%]	AC50 [1]	AC50 [2]
Cc1c(-c2ccco2)[n+](=O)c2c(n1[O-])CCC2	-13.6	–	–
Cc1ccc(NC(=O)CCNC(=O)c2ccc(Cl)cc2)cc1F	–	–	0.461 µM [rising, partial curve, poor fit]
COc1ccc(C(C(=O)NC2CCCC2)N(C(=O)c2ccoc2C)c2ccc(C)cc2)cc1 (stereo not given)	-47.8	3.66 µM [falling, full curve]	7.31 µM [falling, single point]
Cc1nnc2c3ccccc3c(-c3ccc(O)cc3)nn12	57.2	7.31 µM [rising, partial curve]	6.51 µM [rising, full curve]
COc1ccc(N2C(=O)CCC(C(=O)N(C)C3CCCCC3)C2c2ccc(OC)c(OC)c2)cc1 (stereo not given)	7.93	–	–
COC(=O)C1=C(C)N(c2ccc(Cl)cc2)/C(=C/c2ccc(O)cc2)C1=O	-2.68	–	–
NCCc1c(-c2ccccc2)n(-c2ccccc2)c2ccccc12	-2.77	–	–
Nc1nnc(SCC(=O)NNC(=O)c2ccc(Cl)cc2)s1	-4.9	6.51 µM [rising, single point]	–
CCC(C)NC(=O)c1ccc(NC(=O)C2CCCO2)cc1 (stereo not given)	–	–	3.66 µM [falling, single point]
O=C(c1ccc(Br)o1)N1CCN(c2ccc3nnc(-c4ccc(F)cc4)n3n2)CC1	-7.22	1.3 µM [rising, full curve]	–
O=C(CNC(=O)c1ccco1)NCC(=O)OCc1ccc(C(=O)Oc2ccc(Cl)cc2)cc1	-0.475	0.58 µM [rising, single point]	–
CCC(=O)Nc1ccc(C(=O)NNC(=O)C2CCCCC2)cc1	8.5	29.1 µM [rising, single point]	–
CCc1ccccc1NC(=O)CSc1nnc(C2CC2)n1CC1CCCO1 (stereo not given)	2.25	11.6 µM [falling, single point]	–
O=C(CN1C(=O)NC2(CCCCCCC2)C1=O)N1CCN(C(=O)c2ccco2)CC1	4.67	–	–

# Entries of single compounds as entered above:
# COc1cccc(CCN2CCC(CNS(=O)(=O)c3cc(-c4cc(C)no4)ccc3OC)CC2)c1 in the list: cell number change [%]: 27.5; AC50 [1]: 29.1 µM [rising, single point]
# CCCCN(CCCC)C1=Nc2ccccc2N/C1=C(/C#N)C(=O)OCC in the list: cell number change [%]: -43.2; AC50 [1]: 18.4 µM [falling, partial curve, poor fit]; AC50 [2]: 20.6 µM [falling, single point]
